We go through 56 compounds from US11427783B2, “Perfuming compositions” (Firmenich SA, priority 2016, dated 2022).

This series in a line: Odor threshold of perfuming compounds in air.
[1] abbreviates: Table 10, perfuming compounds having a woody note.
[2] abbreviates: Table 5, perfuming compounds having a green note.
The mark [3] stands for this setting: Table 6, perfuming compounds having a fruity note.
Where [4] appears, read: Table 8, perfuming compounds having a sweet note.
The mark [5] stands for this setting: Table 9, perfuming compounds having a gourmand note.
Setting [6] is: perfuming compounds having a fruity note (Table 6).

As to `CC1C(C)(C)C2=C(C(=O)CCC2)C1(C)C` (stereo not shown), the “Odor Threshold (μg/l air)” value under setting [1] was determined as 4.57E−03 μg/l air. For the compound `CC1CC(C)(C)OC(Cc2ccccc2)O1` (stereo not shown), the “Odor Threshold” value under setting [2] was 5.26E−02 μg/l air. Same read-out and setting: next, `COc1nccnc1CCCC(C)C`: 1.18E−07 μg/l air. Regarding `CCC(C)C1(C)COC(C2CCC(C)=CC2C)OC1` (stereo not shown), under setting [1], the “Odor Threshold (μg/l air)” value came to 1.67E−03 μg/l air.

As for `CC(=O)OCCC1=CCC2CC1C2(C)C` (stereo not shown), the “Odor Threshold (μg/l air)” value under setting [1] came to 1.10E−01 μg/l air.

On to `CC1CC(C)(c2ccccc2)OC(C)O1` (stereo not shown), for which the “Odor Threshold (μg/l air)” value under setting [3] was 7.82E−03 μg/l air. With `CC1(C)CC=C(CCC=O)CC1`, under setting [2], the “Odor Threshold” value worked out at 2.06E−03 μg/l air. As for `CC/C=C\CC1=C(C)CCC1=O`, the “Odor Threshold (μg/l air)” value runs as follows: under setting [4], 2.16E−04 μg/l air; under setting [5], 2.16E−04 μg/l air. In the case of `C=CC(C)=CCC=C(C)C`, the “Odor Threshold” value is on record as 2.57E−02 μg/l air under setting [2] and 2.57E−02 μg/l air under setting [6]. With `CC1(C)CCC[C@@]2(C)[C@H]1CC[C@@]1(C)OCC[C@@H]21`, under setting [1], the “Odor Threshold (μg/l air)” value is 2.16E−03 μg/l air. Consider `CC(=O)CCC1=C(C)CCCC1(C)C`, for which the “Odor Threshold (μg/l air)” value is given as 8.51E−03 μg/l air under setting [4] and 8.51E−03 μg/l air under setting [1]. Take `COc1cc(C=O)ccc1OC(=O)C(C)C`: the “Odor Threshold (μg/l air)” value runs as follows: under setting [3], 7.33E−05 μg/l air; under setting [4], 7.33E−05 μg/l air; under setting [5], 7.33E−05 μg/l air.

`COC(OC)C(C)(C)CC=C(C)C`: the “Odor Threshold (μg/l air)” value under setting [1] was determined as 1.26E−02 μg/l air. Turning to `C=CC(=C)CCC=C(C)C`, the “Odor Threshold” value under setting [6] was 4.12E−02 μg/l air.

Consider `CCOC(=O)C1=C(C)C=CCC1(C)C`, for which the “Odor Threshold” value under setting [6] came to 4.40E−03 μg/l air. `CCOC(=O)CC(C)=O`: the “Odor Threshold” value under setting [2] came to 5.83E−02 μg/l air and the “Odor Threshold” value under setting [6] is 5.83E−02 μg/l air.

As to `CCOC(=O)C12CCCC1C1CCC2C1` (stereo not shown), under setting [2], the “Odor Threshold” value was 6.87E−05 μg/l air. In addition, under setting [3], the “Odor Threshold (μg/l air)” value was 6.87E−05 μg/l air.

As for `CC(C)=CC1CC(C)CCO1` (stereo not shown), the “Odor Threshold” value under setting [2] was determined as 8.77E−04 μg/l air. In the case of `CCC(=O)/C=C/C1=C(C)CCCC1(C)C`, the “Odor Threshold (μg/l air)” value under setting [4] worked out at 1.16E−04 μg/l air and the “Odor Threshold (μg/l air)” value under setting [5] is given as 1.16E−04 μg/l air. With `CC(=O)O[C@@H]1CC2CC[C@]1(C)C2(C)C`, the “Odor Threshold (μg/l air)” value under setting [1] was determined as 4.46E−02 μg/l air. `CCC(=O)O[C@H]1C[C@@H]2CC[C@@]1(C)C2(C)C`: the “Odor Threshold (μg/l air)” value under setting [1] stood at 4.55E−02 μg/l air. As for `CC1=CC[C@H](C(C)CC2CCCC2=O)CC1` (stereo partly shown), the “Odor Threshold (μg/l air)” value by setting is: under setting [3], 1.66E−04 μg/l air; under setting [4], 1.66E−04 μg/l air; under setting [5], 1.66E−04 μg/l air.

In the case of `CC1(CO)CC1CC1CC2CC2(C)C1(C)C` (stereo not shown), the “Odor Threshold (μg/l air)” value under setting [1] was found to be 2.18E−06 μg/l air. As to `C/C=C/C(=O)C1=C(C)CCCC1(C)C`, the “Odor Threshold (μg/l air)” value is reported as 2.18E−04 μg/l air under setting [3] and 2.18E−04 μg/l air under setting [1]. Take `C/C=C/C(=O)C1=C(C)C=CCC1(C)C`: under setting [1], the “Odor Threshold (μg/l air)” value turned out to be 3.00E−06 μg/l air.

As for `CC(C)[C@@H]1CC[C@@H](C)CC1=NO`, under setting [2], the “Odor Threshold” value came to 5.52E−05 μg/l air.

In the case of `C=C/C=C/C=C\CCCCC`, the “Odor Threshold” value under setting [2] was found to be 3.76E−05 μg/l air. Take `C[C@@H]1CC[C@H]2[C@H](C)C(=O)O[C@@H]2C1`: the “Odor Threshold (μg/l air)” value under setting [5] was determined as 3.46E−05 μg/l air. For the compound `Cc1ccc(OCC=O)cc1`, under setting [2], the “Odor Threshold” value worked out at 6.46E−05 μg/l air. As to `CC1=CCC(/C=C/C(C)C(C)O)C1(C)C` (stereo not shown), the “Odor Threshold (μg/l air)” value under setting [1] was 9.56E−05 μg/l air.

With `CC1(C)[C@@H]2CC[C@@]1(C)C(=O)C2`, the “Odor Threshold” value under setting [6] is 1.72E−01 μg/l air.

For the compound `C[C@@H]1CC[C@H]2C(C)(C)[C@H]3C[C@@]12C[C@@H]1OC(C)(C)O[C@@]13C`, the “Odor Threshold (μg/l air)” value under setting [1] turned out to be 3.90E−06 μg/l air. As to `CC1(C)C2C[C@H]3CCC(=O)C=C3[C@@H]1C2`, the “Odor Threshold (μg/l air)” value under setting [1] stood at 2.86E−05 μg/l air. Regarding `C[C@H]1[C@@H]2C[C@H](C[C@@]13C=CC(=O)CC3)C2(C)C`, the “Odor Threshold (μg/l air)” value is recorded as 6.32E−04 μg/l air under setting [3] and 6.32E−04 μg/l air under setting [1]. In the case of `CC/C(=C\C[C@H]1CC=C(C)C1(C)C)CO`, under setting [1], the “Odor Threshold (μg/l air)” value was found to be 2.41E−05 μg/l air. For `COC(C)(C)[C@H]1CC=C(C)CC1`, the “Odor Threshold” value under setting [2] is 1.99E−01 μg/l air. Turning to `C=C(C)[C@@H]1CC=C(CO)CC1`, the “Odor Threshold” value under setting [2] stood at 2.07E−02 μg/l air. Still for that read-out and setting: next, “3,7-DIMETHYL-2,6-NONADIENENITRILE (A) + 3,7-DIMETHYL-3,6-NONADIENENITRILE (B)”: 3.10E−04 μg/l air. Consider “8(9)-METHOXY-TRICYCLO[5.2.1.0(2,6)]DECANE-3(4)-CARBALDEHYDE”, for which the “Odor Threshold (μg/l air)” value under setting [3] amounted to 4.02E−05 μg/l air. With `CCCC(C)=CCOC(C)=O` (mixture of isomers), the “Odor Threshold” value reads like this: under setting [2], 2.73E−02 μg/l air; under setting [6], 2.73E−02 μg/l air. Regarding `CC(=O)OCC=C(C)CCC=C(C)C` (mixture of isomers) [GERANYL ACETATE (A) + NERYL ACETATE (B)], under setting [2], the “Odor Threshold” value is recorded as 3.57E−02 μg/l air. For `C=CC1(C)CCCC(C)(C)O1` (racemic), under setting [2], the “Odor Threshold” value was found to be 1.64E−01 μg/l air. Take `CC1CC(C)(c2ccccc2)CO1` (racemic): the “Odor Threshold” value worked out at 5.04E−04 μg/l air under setting [2] and 5.04E−04 μg/l air under setting [6].

Consider `CC1=CCC2C(C1)C1CC2C2(C1)OC2C` (racemic), for which the “Odor Threshold” value under setting [2] is given as 9.93E−04 μg/l air. In addition, the “Odor Threshold (μg/l air)” value under setting [3] is reported as 9.93E−04 μg/l air. `CCC(C)(O)CCCC(C)C` (racemic): the “Odor Threshold” value under setting [2] stood at 3.45E−03 μg/l air. On to `C=C(C)CC(C)OC(=O)C(C)C` (racemic), for which the “Odor Threshold (μg/l air)” value under setting [4] was found to be 2.26E−01 μg/l air and the “Odor Threshold (μg/l air)” value under setting [5] is on record as 2.26E−01 μg/l air. In addition, the “Odor Threshold” value under setting [6] was 2.26E−01 μg/l air. Consider `CC1COCc2cc3c(cc21)C(C)(C)C(C)C3(C)C` (racemic), for which, under setting [3], the “Odor Threshold (μg/l air)” value came to 2.62E−04 μg/l air.

Take `CC1OCCC12NCCS2` (racemic): the “Odor Threshold (μg/l air)” value under setting [4] was 2.53E−06 μg/l air. Turning to `COC(=O)C1C(C)=CCCC1(C)C` (racemic), the “Odor Threshold” value under setting [2] turned out to be 1.06E−02 μg/l air. With `CC1CCCC2(C)CCCCC12O` (racemic), the “Odor Threshold” value under setting [2] was found to be 5.32E−06 μg/l air. On to `CC1=C[C@H](C)[C@H]2[C@H](CCC(C)(C)[C@H]2O)C1` (racemic), for which, under setting [2], the “Odor Threshold” value was 8.15E−04 μg/l air. The “Odor Threshold (μg/l air)” value under setting [3] was 8.15E−04 μg/l air. Turning to `C/C=C/C(=O)C1C(C)=CCCC1(C)C` (racemic), the “Odor Threshold” value under setting [2] is 1.04E−04 μg/l air. Further, the “Odor Threshold (μg/l air)” value by setting is: under setting [3], 1.04E−04 μg/l air; under setting [4], 1.04E−04 μg/l air; under setting [1], 1.04E−04 μg/l air. On to `CC(=O)/C=C/C1C(C)=CCCC1(C)C` (racemic), for which the “Odor Threshold” value under setting [2] worked out at 5.30E−04 μg/l air. For the compound `COC(=O)OC1CC/C=C\CCC1` (racemic), the “Odor Threshold” value under setting [2] worked out at 3.69E−04 μg/l air. `CC(=O)/C(C)=C/C1C(C)=CCCC1(C)C` (racemic): the “Odor Threshold (μg/l air)” value came out at 1.92E−04 μg/l air under setting [3] and 5.03E−05 μg/l air under setting [1]. Consider `C=C(C)CC(C(C)=O)C(=O)OCC` (racemic), for which the “Odor Threshold” value worked out at 3.64E−03 μg/l air under setting [2] and 3.64E−03 μg/l air under setting [6].
